Reference: PubChem BioAssay AID493014 (National Center for Advancing Translational Sciences (NCATS), 2011)
This is one part of the list. Further columns of the screen follow, without active or inactive calls. The list favours compounds with an active or inconclusive main result. Potencies come from curve fits of mixed quality, noted in brackets.

Assay: qHTS Assay to Find Inhibitors of Chronic Active B-Cell Receptor Signaling
Conditions: ABC-DLBCL IkBa-CBG/CBR reporter, luminescence ratio (green luciferase fused to IkBa over red control in TMD8 lymphoma cells), 4 h
In short: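 Cell line TMD8 (human ABC DLBCL), stably expressing tet-inducible CBG68-IkBa fusion and CBR; IMDM/0.5% FBS; cpd up to 46 uM; dox induction, 4 h, 37C/5% CO2; dual luminescence; green/red ratio; MG132 control.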

[1] = measured here: CBR red luminescence, cell number
[2] = measured here: IkBa-CBG green luminescence

Question: With C[C@]12CCC3C(CC[C@H]4C[C@@H](O)CC[C@]34C)C1[C@H]1CN=N[C@H]1[C@@H]2O (some centres not stated) as the molecule, how does the AC50 [1] read?
Answer: 18.4 µM [rising, single point]

Question: With CC(Cc1ccccc1)NC(=O)Cc1ccc(N(C)C)cc1 (configuration not stated) as the molecule, how does the AC50 [1] read?
Answer: 13 µM [rising, partial curve]

Question: Which AC50 [1] does the source give for CCN(CC)c1c([N+](=O)[O-])c(=O)n(C)c2ccccc12 here?
Answer: 35.5 µM [falling, single point]

Question: Which AC50 [1] does the source give for CC(=O)NCC(=O)Nc1ccc(Br)cc1C(=O)c1ccccc1 here?
Answer: 35.5 µM [rising, single point]

Question: For Cn1cccc1/C=C1\C(=O)NC(=O)N(Cc2ccco2)C1=O, which AC50 [1] is on record?
Answer: 35.5 µM [rising, single point]

Question: Which AC50 [1] does the source give for CCCOc1ccc(C(=O)NCCc2ccccc2)cc1 here?
Answer: 35.5 µM [falling, single point]

Question: For CC(C)(O)[C@H]1O[C@H]2CC[C@@]3(C)[C@@](O)(CC[C@H]4Cc5c([nH]c6ccccc56)[C@@]43C)C2=CC1=O, which AC50 [1] is on record?
Answer: 35.5 µM [falling, single point]

Question: With FC(F)Oc1ccccc1/C=N/n1cnc2ccccc21 as the molecule, how does the AC50 [1] read?
Answer: 3.16 µM [rising, full curve, poor fit]

Question: For Cc1c(-c2cccc(Cl)c2)nc2ccccc2c1C(=O)N1CCC2(CC1)OCCO2, which AC50 [1] is on record?
Answer: 14.1 µM [rising, partial curve, poor fit]

Question: Which AC50 [1] does the source give for CC(=O)N1N=C(c2cccnc2)CC1c1ccccc1O (configuration not stated) here?
Answer: 35.5 µM [rising, single point]

Question: Which AC50 [1] does the source give for COc1ccc(-c2nn(CCC#N)cc2C(=O)NCc2ccccc2)cc1 here?
Answer: 0.316 µM [rising, full curve, poor fit]

Question: With N#C/C(=C\c1ccc([N+](=O)[O-])o1)C(=O)Nc1ccc(F)cc1 as the molecule, how does the AC50 [1] read?
Answer: 11.2 µM [falling, partial curve, poor fit]

Question: With Cn1c(O)c(C(=Nc2ccccc2)SCc2ccccc2Cl)c(=O)n(C)c1=O as the molecule, how does the AC50 [1] read?
Answer: 2.51 µM [falling, full curve]

Question: Which AC50 [1] does the source give for O=C1NC(=S)NC(=O)C1C/C=C/c1ccccc1 here?
Answer: 4.11 µM [falling, full curve, poor fit]

Question: With COc1ccc(OCCOc2cccc(C=C3C(=O)NC(=O)NC3=O)c2)cc1 as the molecule, how does the AC50 [1] read?
Answer: 5.01 µM [falling, partial curve]

Question: With COc1ccccc1N=Nc1c(O)[nH]c(=S)[nH]c1=O as the molecule, how does the AC50 [1] read?
Answer: 14.1 µM [falling, partial curve]

Question: Which AC50 [1] does the source give for CN(C)C(=O)Oc1ccc(-c2cn3cc(C(F)(F)F)ccc3n2)cc1 here?
Answer: 10.3 µM [rising, partial curve]

Question: With O=C(c1ccccc1)C1NC1c1ccccc1 (configuration not stated) as the molecule, how does the AC50 [1] read?
Answer: 15.8 µM [falling, single point]

Question: With Cc1ccc(N(C)C(=O)Oc2cccc3cccnc23)cc1 as the molecule, how does the AC50 [1] read?
Answer: 0.206 µM [rising, full curve, poor fit]

Question: With C=CCN1C(=O)C2(C(C(=O)OCC)=C(N)Oc3c2c(=O)oc2ccccc32)c2ccccc21 (configuration not stated) as the molecule, how does the AC50 [1] read?
Answer: 2.91 µM [falling, partial curve, poor fit]

Question: With CCCNc1oc(-c2cccc3ccccc23)nc1C#N as the molecule, how does the AC50 [1] read?
Answer: 29.1 µM [rising, single point]

Question: For O=P(OC1CCCCC1)(OC1CCCCC1)C(O)c1ccc(Cl)cc1Cl (configuration not stated), which AC50 [1] is on record?
Answer: 29.1 µM [rising, single point]

Question: Which AC50 [1] does the source give for OC1/C(=C/c2ccc(C(F)(F)F)cc2)N2CCC1CC2 (configuration not stated) here?
Answer: 15.8 µM [rising, partial curve, poor fit]

Question: Which AC50 [1] does the source give for CCOP(=O)(OCC)C(Nc1cccc(C(F)(F)F)c1)c1ccc(Br)cc1 (configuration not stated) here?
Answer: 29.1 µM [falling, single point]

Question: For O=C(c1ccccc1)C1CCCN(Cc2nc(-c3cnccn3)no2)C1 (configuration not stated), which AC50 [1] is on record?
Answer: 35.5 µM [falling, single point]

Question: With O=C(C[N+]12CCC(CC1)C(CO)C2)c1ccc(Br)cc1 (configuration not stated) as the molecule, how does the AC50 [1] read?
Answer: 1.78 µM [rising, full curve, poor fit]

Question: With N#CC1=C(N)C(C#N)(C#N)C(c2ccncc2)C2CN(C(=O)OCc3ccccc3)CC=C12 (configuration not stated) as the molecule, how does the AC50 [1] read?
Answer: 16.4 µM [falling, single point]

Question: With CCOc1ccc2nc(NC(=O)c3ccccn3)sc2c1 as the molecule, how does the AC50 [1] read?
Answer: 7.94 µM [falling, partial curve]

Question: With C=CC[C@@H](CC/C=C/C=C/CC/C=C\[C@@H]1CSC([C@@H]2C[C@@H]2C)=N1)OC as the molecule, how does the AC50 [1] read?
Answer: 5.8 µM [rising, full curve]

Question: And the AC50 [2]?
Answer: 7.31 µM [falling, partial curve]

Question: For O=C(NC1CN2CCC1CC2)c1cccc(Cl)c1 (configuration not stated), which AC50 [1] is on record?
Answer: 20 µM [rising, partial curve, poor fit]

Question: Which AC50 [1] does the source give for Cc1ccc2c(c1)CC1(CN2C)C(=O)NC(=O)N(c2cc(C)ccc2C)C1=O (configuration not stated) here?
Answer: 11.2 µM [rising, partial curve, poor fit]

Question: With Cc1ccc(-n2c(CNCc3ccc(F)cc3)nc3ccccc3c2=O)cc1 as the molecule, how does the AC50 [1] read?
Answer: 11.2 µM [falling, partial curve, poor fit]

Question: For CCOc1ccc(CNCCc2ccc3c(c2)OCO3)cc1, which AC50 [1] is on record?
Answer: 35.5 µM [falling, single point]

Question: Which AC50 [1] does the source give for CCOc1ccccc1-n1c(O)c(C=Nc2ccc(N(CC)CC)cc2)c(=O)[nH]c1=O here?
Answer: 35.5 µM [rising, single point]

Question: With O=c1[nH]c(=O)n(Cc2ccccc2Cl)c(O)c1/C=C1/C=CC=N1 as the molecule, how does the AC50 [1] read?
Answer: 1 µM [rising, partial curve, poor fit]

Question: And the AC50 [2]?
Answer: 3.55 µM [falling, full curve]

Question: With Cc1csc(Nc2ccc(C(=O)O)cc2)n1 as the molecule, how does the AC50 [1] read?
Answer: 14.1 µM [falling, partial curve]

Question: For O=c1[nH]c2c(c(=O)n1C1CCCCC1)CCC2, which AC50 [1] is on record?
Answer: 7.31 µM [falling, partial curve]

Question: Which AC50 [1] does the source give for COC(=O)C1=Nc2ccccc2/C1=C\c1c(O)n(-c2cc(OC)ccc2OC)c(=O)[nH]c1=O here?
Answer: 16.4 µM [falling, partial curve, poor fit]

Question: With COCCN(C(=O)COC(=O)Cc1ccccc1)c1c(N)n(Cc2ccccc2)c(=O)[nH]c1=O as the molecule, how does the AC50 [1] read?
Answer: 6.51 µM [rising, single point]

Question: With Cn1c(=O)c2c(nc(N/N=C/c3c(O)n(-c4ccccc4)c(=S)[nH]c3=O)n2C)n(C)c1=O as the molecule, how does the AC50 [1] read?
Answer: 29.1 µM [falling, single point]
